# Data reported in the supplement of paper PMC3334620.
# The full ranking holds about 33,000 sequences; the median of “E-score (-0.5 to 0.5)” is about -8e-05, and the highest 2% start at about 0.23. This is one part of the list.
# Biological target: T1, Nrg2 (UniProt P38082)
# T1 sequence: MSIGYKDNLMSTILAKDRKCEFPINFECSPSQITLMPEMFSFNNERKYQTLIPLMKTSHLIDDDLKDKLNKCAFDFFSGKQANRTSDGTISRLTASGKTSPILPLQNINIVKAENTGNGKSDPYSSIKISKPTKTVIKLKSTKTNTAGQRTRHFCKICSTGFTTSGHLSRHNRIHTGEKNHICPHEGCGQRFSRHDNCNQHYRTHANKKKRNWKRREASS
# Test: PBM E-score (8-mer binding enrichment) (E-score (-0.5 to 0.5)); higher = stronger / more preferred TF binding
# Details: protein concentration: 100 nM; construct: GST-full length
# Method: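 Universal 'all 10-mer' protein binding microarrays (Agilent AMADID 015681) probed with GST-tagged S. cerevisiae TFs (full-length or DBD) made by in vitro transcription/translation (PURExpress), about 100-200 nM. Bound TF was detected with fluorescent anti-GST. Each ungapped 8-mer (which stands for itself and its reverse complement) is scored by the PBM enrichment score (E-score), a modified Wilcoxon-Mann-Whitney statistic from -0.5 to +0.5, computed with the Universal PBM Analysis Suite. Scale: above 0.35 generally sequence-specific binding.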
row,Sequence,PBM E-score
1,GCCCATCA,-0.152
2,AACTGAAA,0.0615
3,CTCTCGCA,-0.0191
4,CCCAAGAC,-0.0333
5,GCGCCCGC,0.0535
6,GCGATCCC,-0.0756
7,GCAAGAAC,0.188
8,CCAGCGCG,0.066
9,CATCGGTC,-0.112
10,TCAATTGA,0.021
11,CAGAAATA,0.12
12,CTCCGAAG,0.00793
13,AACGGCAC,-0.244
14,ATGCCCTC,0.0243
15,GAGCTCGA,0.183
16,ATCATCGC,0.0399
17,CCTTTGTC,0.0208
18,CTACAGAA,0.0765
19,CCCTTGTA,-0.0812
20,CAGAGATC,-0.029
21,TCCGGGAA,0.0395
22,GTGATTTA,0.102
23,TAGGCACA,-0.109
24,CCCTCACG,-0.0421
25,AATCGTGG,0.2

row,Sequence,PBM E-score
1,AATTTTTG,0.0673
2,ATCCAGTA,0.0538
3,AGACGACG,-0.0421
4,GGGTTGAC,0.0552
5,AAAAGGAG,-0.182
6,GCATGCCC,0.0203
7,AAGCACGG,-0.0932
8,TGAGGACA,0.0644
9,AAGTCAAA,0.134
10,GCTCGCAC,0.005
11,TCTAACCA,0.147
12,CGGCCGGA,-0.0668
13,CCTACAGC,0.165
14,AAACATTA,-0.189
15,CCGCTTAG,-0.0665
16,CCCACAGG,-0.095
17,GGACCCGA,0.0929
18,GTGACAAA,0.0162
19,TCGTGAAA,-0.124
20,TAAATACA,-0.00857
21,TGTGCTAA,0.0809
22,GGACTTTA,-0.0473
23,AACTCTCG,0.114
24,AACCTTAG,-0.109
25,AGGCGTCG,0.0257

row,Sequence,PBM E-score
1,CAGTTATG,0.116
2,AGTATGCG,0.0324
3,CCCCGCCA,0.0356
4,AGACTTAT,-0.275
5,AACGTGCT,-0.119
6,AAATAATA,0.203
7,GCACCCGA,-0.0914
8,CGGCAGAC,-0.234
9,AGCGGTTG,-0.028
10,ACCAACGG,-0.19
11,ATGGTGCC,-0.195
12,AGCAGGGG,-0.182
13,CTGTGCTC,0.0672
14,GAACTCAA,-0.0609
15,AGCGGCTG,-0.0903
16,GCACTAAC,-0.0635
17,GAAAGGGA,-0.0232
18,ATCCTGGC,-0.0281
19,AATTCAGC,0.044
20,AGCACGAC,-0.0799
21,AATTTTGT,0.0423
22,CACAGTCC,-0.0485
23,CCACTGTA,0.064
24,AATCGGAC,0.0294
25,GCGTATCA,0.0274

row,Sequence,PBM E-score
1,AAGTCCAC,-0.102
2,CAGCGGCA,-0.126
3,GGCGTGAA,-0.0326
4,ACTGAGCG,-0.158
5,ACCAGTGA,-0.135
6,CTAGCCTC,-0.262
7,GAATTGAA,0.0538
8,CGACTTGA,0.00238
9,ACGACGTG,-0.0647
10,CACACTAG,0.0401
11,TGACAGCA,0.00602
12,ACGAATGA,0.156
13,GGCTACAA,0.0783
14,ATCGGAAA,0.0359
15,GCCTACCC,-0.1
16,GTTCAAGA,0.029
17,ATGGAGCA,0.0393
18,CCGCCGTC,0.132
19,GCCCTACC,-0.103
20,AACTCCTC,-0.189
21,GCGGCATA,-0.0187
22,TAATGAAA,0.0368
23,TACTTACA,-0.0166
24,CAGGCGAG,-0.105
25,AGGACATC,0.108

# In another format: results already given.
row | Sequence | PBM E-score
1 | AATTTTTG | 0.0673
2 | ATCCAGTA | 0.0538
3 | AGACGACG | -0.0421
4 | GGGTTGAC | 0.0552
5 | AAAAGGAG | -0.182
6 | GCATGCCC | 0.0203
7 | AAGCACGG | -0.0932
8 | TGAGGACA | 0.0644
9 | AAGTCAAA | 0.134
10 | GCTCGCAC | 0.005
11 | TCTAACCA | 0.147
12 | CGGCCGGA | -0.0668
13 | CCTACAGC | 0.165
14 | AAACATTA | -0.189
15 | CCGCTTAG | -0.0665
16 | CCCACAGG | -0.095
17 | GGACCCGA | 0.0929
18 | GTGACAAA | 0.0162
19 | TCGTGAAA | -0.124
20 | TAAATACA | -0.00857
21 | TGTGCTAA | 0.0809
22 | GGACTTTA | -0.0473
23 | AACTCTCG | 0.114
24 | AACCTTAG | -0.109
25 | AGGCGTCG | 0.0257
1 | CAGTTATG | 0.116
2 | AGTATGCG | 0.0324
3 | CCCCGCCA | 0.0356
4 | AGACTTAT | -0.275
5 | AACGTGCT | -0.119
6 | AAATAATA | 0.203
7 | GCACCCGA | -0.0914
8 | CGGCAGAC | -0.234
9 | AGCGGTTG | -0.028
10 | ACCAACGG | -0.19
11 | ATGGTGCC | -0.195
12 | AGCAGGGG | -0.182
13 | CTGTGCTC | 0.0672
14 | GAACTCAA | -0.0609
15 | AGCGGCTG | -0.0903
16 | GCACTAAC | -0.0635
17 | GAAAGGGA | -0.0232
18 | ATCCTGGC | -0.0281
19 | AATTCAGC | 0.044
20 | AGCACGAC | -0.0799
21 | AATTTTGT | 0.0423
22 | CACAGTCC | -0.0485
23 | CCACTGTA | 0.064
24 | AATCGGAC | 0.0294

# The listing continues.

row,Sequence,PBM E-score
1,CGCGCAGA,0.232
2,ATGGTGGG,-0.0902
3,AGGGCGAT,-0.148
4,CCATATCC,0.0805
5,GCCTTCGC,-0.0892
6,CGTGCGAA,0.00716
7,GGTACGTA,-0.169
8,CAAGGCAA,-0.0192
9,ACCCAAAA,-0.00454
10,ACCCGGCG,-0.112
11,TATATACA,0.207
12,AGCAGACT,-0.138
13,CAGACTGA,-0.118
14,CTATTTCC,0.255
15,ACATACGT,-0.236
16,CACACCCC,-0.227
17,AGGGGGTG,-0.443
18,ATAGGTCA,0.0225
19,ACAATGAC,-0.125
20,GAATTTAC,0.0505
21,CGCCTGAA,0.181
22,ACAGGCTG,-0.0514
23,GACAAGGC,-0.0661
24,ACGGGAAA,0.198
25,AATAACTG,0.114

row,Sequence,PBM E-score
1,GCTCGAGC,0.24
2,CGCGTCGC,-0.0522
3,ACCATTAT,-0.0283
4,AAGGTAAA,0.0112
5,TGACATAA,0.0755
6,AACAATCT,0.0946
7,TATTAACA,0.187
8,AGAAGTGG,-0.0614
9,GCACCTAA,-0.0998
10,AGTCGGTG,-0.168
11,AATGCGAG,0.107
12,CACGATGG,-0.105
13,ACGCGAAT,0.0458
14,GGACTAGA,0.0471
15,CTTAACCA,0.0122
16,ATGAAGGC,-0.092
17,AGATGACC,-0.0394
18,CGCCCTCA,-0.195
19,CGCAAGCA,-0.1
20,ACATGTAT,0.161
21,TAAACGAA,0.0719
22,ACCGCAGG,-0.00629
23,AACTTCTT,0.0847
24,AACATAGA,0.0686
25,CATGTGAC,-0.142

row,Sequence,PBM E-score
1,AGGGCTGA,-0.201
2,AGGTAGCG,-0.021
3,TACACATA,0.108
4,GAGGATAA,-0.0361
5,ACTGAACA,0.154
6,ACGCCGGC,0.103
7,GCATATGC,0.0211
8,AGCAAGAG,-0.089
9,AAGTAAAT,0.191
10,ATGGACAC,0.0509
11,CTGCTTTC,0.104
12,AGGGCCGA,0.0378
13,ACGCGGCA,-0.0886
14,CGGTAGCA,-0.0746
15,CAGGATGC,-0.0207
16,GAAAAGAA,0.144
17,AGCTGTGC,-0.0999
18,AAGCATGC,-0.135
19,CGACTAAG,-0.177
20,GGCACACC,-0.194
21,ATTTTCCC,0.124
22,GTATTTAA,-0.0904
